The experiment in a line: qHTS Assay for Lipid Storage Modulators in Drosophila S3 Cells.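 As to cell number change: cells counted by Cell Tracker Red CMTPX staining in the red channel.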 Particulars: BODIPY lipid droplet fluorescence, 18-24 h; for cell number change: measured here: cell count max response, cells fed with added oleic acid. The method in brief:
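Drosophila S3 cells loaded with oleic acid (400 uM, as added) and compounds at several concentrations; lipid droplets imaged by 488-nm laser-scanning cytometry, 500–530 nm intensity and object ratio to cell channel. Percent activity normalized to 20 uM Triacsin C.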
In general terms: In qHTS, concentration-response curves come from the screen itself.

Setting [1] is: measured here: cell number channel AC50, cells fed with added oleic acid.
[2] abbreviates: measured here: lipid fluorescence (Fed channel) AC50, cells fed with added oleic acid.

This is one part of the list. These are further read-outs of the screen, such as a control signal, another cell line or another target. No call is given for them. Most of these compounds were active or inconclusive in the main read-out, so they are no random draw. The note in brackets gives the kind of curve behind each potency; many fits are weak.

Usually AC50 stands for the concentration at which the activity in the assay is half-maximal. A low value points to activity at low concentration. In the case of `COc1cccc(Nc2nc(NCCO)c3ccccc3n2)c1`, the cell number change was found to be 10.4%. Under setting [1], the AC50 is 1.46 µM [rising, full curve, poor fit].
Take `O=C(CSc1nnc2ccccn12)NCc1ccc2c(c1)OCO2`: the cell number change was -25.3%. The AC50 under setting [2] was 6.51 µM [falling, single point].
Turning to `COc1cc(-c2nc(S(=O)(=O)c3ccccc3)c(N3CCOCC3)o2)cc(OC)c1OC`, the cell number change was -75.2%. The AC50 under setting [1] was 25.9 µM [falling, partial curve, poor fit]. The AC50 under setting [2] was 2.31 µM [rising, partial curve].
With `COc1ccc(CN2CCCC(C(=O)N3CCCCC3)C2)c(OC)c1` (stereo unspecified), under setting [2], the AC50 was 29.1 µM [falling, single point].
Take `CCC(SCC(=O)OC)C(=O)Nc1nnc(C(C)C)s1` (stereo unspecified): the cell number change was 2.91%. Also, under setting [2], the AC50 is 0.00461 µM [falling, full curve, poor fit].
For `Cc1ccc(NC(=O)C2CCCN(S(=O)(=O)c3ccc4[nH]c(=O)ccc4c3)C2)nc1` (stereo unspecified), the cell number change was -11.5%. Further, the AC50 under setting [2] is 29.1 µM [rising, single point].
Turning to `Brc1cnc(N2CCCC2)nc1N1CCOCC1`, the cell number change is 1.96%. Further, under setting [2], the AC50 is 1.84 µM [rising, full curve].
As to `COC(=O)c1ccc(NC(=O)CCOc2ccccc2)cc1`, the cell number change was 15.9%. Also, the AC50 under setting [2] is 29.1 µM [falling, partial curve].
In the case of `COc1ccc(C(O)P(=O)(OC(C)C)OC(C)C)c(OC)c1` (stereo unspecified), the cell number change stood at 0.25%. The AC50 under setting [2] was 29.1 µM [falling, single point].
On to `Cc1cccc(Nc2nc(N)nc(-c3oc4ccccc4c3C)n2)c1`, for which the cell number change is -34%. The AC50 under setting [1] was 29.1 µM [falling, single point]. The AC50 under setting [2] was 32.6 µM [falling, single point].
As to `Cc1[nH]n(C(N)=S)c(=O)c1N=Nc1ccc([N+](=O)[O-])cc1Cl`, the cell number change is -71.5%. For the same molecule, the AC50 under setting [1] was 25.9 µM [falling, partial curve]. The AC50 under setting [2] is 2.06 µM [rising, partial curve].
For `COc1cccc(-c2noc(Cn3nc(C)c([N+](=O)[O-])c3C)n2)c1`, the cell number change is 25%. For the same molecule, the AC50 under setting [2] was 18.4 µM [rising, single point].
In the case of `Cc1ccc(N=Nc2c(N)[nH]n3c(=O)cc(-c4ccccc4)nc23)cc1`, the AC50 under setting [2] is 0.92 µM [falling, full curve, poor fit].
Turning to `Cc1noc(C)c1C(=O)Nc1nccs1`, the cell number change was 43%. The AC50 under setting [1] was 25.9 µM [rising, single point].
`Cc1c(NC(=O)COC(=O)C23CC4CC(CC(Br)(C4)C2)C3)c(=O)n(-c2ccccc2)n1C`: the cell number change is -25%. Also, the AC50 under setting [1] is 1.16 µM [falling, full curve, poor fit]. In addition, the AC50 under setting [2] was 0.058 µM [falling, full curve].
With `Cc1cc(N2CCN(c3ccccc3)CC2)n2c(n1)nc1ccccc12`, the cell number change was -7.3%.
Consider `C=CCSc1n[nH]c(=O)n1-c1cccc(C(F)(F)F)c1`, for which the cell number change stood at 15.5%. Also, the AC50 under setting [2] was 0.00461 µM [rising, full curve, poor fit].
As for `Cc1ccc(S(=O)(=O)NCC(=O)NCC(=O)N2CCN(c3ncccn3)CC2)cc1C`, the cell number change turned out to be 16.8%. For the same molecule, the AC50 under setting [1] was 6.51 µM [rising, single point].
For `O=C(Nc1cccc(-c2nc3ccccc3[nH]2)c1)c1cccc(NC(=O)c2ccco2)c1`, the cell number change was -60.6%. Besides, the AC50 under setting [1] was 1.84 µM [rising, partial curve]. Besides, the AC50 under setting [2] is 2.06 µM [rising, partial curve].
On to `O=S(=O)(NCCc1csc(-c2ccccc2)n1)c1cccnc1`, for which the half-maximal activity concentration (AC50) under setting [1] was 3.26 µM [rising, single point] and the AC50 under setting [2] is 3.66 µM [rising, full curve].
In the case of `CC(C)CC(=O)N=C1SC2CS(=O)(=O)CC2N1Cc1ccccc1` (stereo unspecified), the cell number change came to 6.19%. Moreover, the AC50 under setting [2] was 9.2 µM [rising, partial curve].
Take `CCOC(=O)C1=C(C)NC(C)=C(C(=O)OCC)C1c1ccc(OC)cc1`: the cell number change was -0.856%. In addition, the AC50 under setting [1] was 1.03 µM [rising, full curve, poor fit]. For the same molecule, the concentration at half-maximal activity (AC50) under setting [2] was 0.58 µM [rising, partial curve, poor fit].
Take `CCC1CCCCN1CCCNC(=O)c1ccc2c(c1)c(C)c(C)n2C` (stereo unspecified): the cell number change was 46%. Besides, under setting [1], the AC50 was 29.1 µM [rising, single point]. Also, under setting [2], the AC50 was 29.1 µM [rising, single point].
As for `CCOc1ccc(N(Cc2ccc(C(=O)O)cc2)S(=O)(=O)c2ccc(C)cc2)cc1`, the cell number change is -8.99%. In addition, the AC50 under setting [2] is 6.51 µM [rising, single point].
Turning to `COc1ccc(OC)c(-n2c(SCC(=O)Nc3cc(C)on3)nnc2-c2c[nH]c3ccccc23)c1`, the cell number change is -32.3%. In addition, the AC50 under setting [1] is 10.3 µM [falling, single point]. The AC50 under setting [2] was 23.1 µM [rising, single point].
With `COc1ccc2c(Cl)c(C(=O)NCc3ccco3)sc2c1`, the cell number change is 150%. For the same molecule, the concentration at half-maximal activity (AC50) under setting [1] was 5.8 µM [rising, partial curve]. The AC50 under setting [2] is 2.31 µM [rising, full curve].
Regarding `CCn1cc(C(=O)NCC(=O)NC(C)(C)CO)c(=O)c2cc3c(cc21)OCO3`, the cell number change was determined as 6.31%. Besides, the AC50 under setting [2] was 7.31 µM [falling, single point].
`COc1ccc(C(C)=O)cc1COC(=O)c1cccnc1SC`: the cell number change is 17.6%. Further, under setting [2], the AC50 was 0.731 µM [rising, single point].
For the molecule `Cc1cc(SCC(=O)OCC(=O)N(C)C2CCS(=O)(=O)C2)c(C)cc1Br` (stereo unspecified), the cell number change stood at 25%. In addition, the AC50 under setting [1] is 0.58 µM [rising, full curve, poor fit].
With `C=CCNC(=O)/C(C#N)=C/c1ccccc1Cl`, the cell number change was -12%. Also, the AC50 under setting [2] was 25.1 µM [falling, partial curve].
With `O=C(Nc1cccc(-n2cnnn2)c1)c1ccccc1Br`, the cell number change is -16.5%. Besides, the AC50 under setting [2] is 29.1 µM [falling, single point].
Regarding `CCCOc1ccc(-c2c(=O)n(O)c3ccccc3[n+]2[O-])cc1`, the cell number change was -14.6%. Under setting [2], the AC50 is 29.1 µM [falling, single point].
Regarding `CCOc1ccc(NC(=O)C/C(C)=N/NC(=O)Cc2cccs2)cc1`, the cell number change was 16.7%. Further, under setting [2], the AC50 was 0.116 µM [rising, single point].
`COc1cc(S(=O)(=O)N2CCCN(C)CC2)ccc1NC(C)=O`: the cell number change came out at 35.9%.
Turning to `N#Cc1cnn(Cc2ccccc2)c1/N=C/N1CCOCC1`, under setting [1], the AC50 is 6.51 µM [rising, single point].
Regarding `O=C(COc1cccc(Cl)c1)Nc1ccccc1N1CCCCC1`, the AC50 under setting [2] was 0.231 µM [falling, full curve].
For the molecule `O=C(NCc1ccc(Cl)cc1)C1CCC(CNc2c(N3CCOCC3)c(=O)c2=O)CC1` (stereo unspecified), the cell number change was -0.815%.
`CN(C)C(=O)c1ccc(NC(=O)c2cc(-c3ccco3)nc3ccccc23)cc1`: the cell number change came to 15.7%. Moreover, the AC50 under setting [2] was 18.4 µM [rising, single point].
For the molecule `Cc1ccc(NC(=O)CSC(N)=O)cc1Cl`, the cell number change is -16.9%. For the same molecule, the AC50 under setting [2] is 0.13 µM [falling, full curve, poor fit].
As to `O=C(CSCc1ccc([N+](=O)[O-])cc1)NCCSCc1ccccc1`, the cell number change was -18.6%. Further, under setting [2], the AC50 was 20.6 µM [falling, partial curve].
As for `Cc1cc(C(=O)N2CCCC2)n[nH]1`, the cell number change was -16.6%. Also, the AC50 under setting [2] is 0.13 µM [rising, full curve, poor fit].
Consider `O=C(NC1CCN(Cc2ccccc2)CC1)C1CCN(S(=O)(=O)c2cccc([N+](=O)[O-])c2)CC1`, for which the cell number change came to 13.2%. In addition, the AC50 under setting [2] was 1.64 µM [rising, full curve, poor fit].
For the molecule `CCOC(=O)N1CCN(Cc2cc(Cl)c3cccnc3c2O)CC1`, the cell number change was -10.5%. For the same molecule, the AC50 under setting [2] is 29.1 µM [falling, single point].
On to `C=CCN(C(=O)c1csnn1)C(C(=O)NCc1ccc(F)cc1)c1ccccc1F` (stereo unspecified), for which the cell number change is -17.1%. Besides, the AC50 under setting [2] is 6.51 µM [falling, partial curve, poor fit].
For the molecule `CCCCc1ccc(NC(=O)c2ccc(NS(C)(=O)=O)cc2)cc1`, the cell number change is -38.5%. Besides, under setting [1], the AC50 is 29.1 µM [falling, single point]. Moreover, the AC50 under setting [2] is 23.1 µM [falling, partial curve].
As for `Cc1ccc(NC(=O)C2CCN(S(=O)(=O)c3ccc4c(c3)OCCO4)CC2)nc1`, the AC50 under setting [2] was 0.58 µM [rising, single point].
With `CCOC(=O)C1=C(CS(=O)(=O)c2ccc(C)cc2)NC(=O)NC1c1cc(OC)c(O)c(OC)c1` (stereo unspecified), the cell number change came to 0.298%.
On to `CC1(c2cc([N+](=O)[O-])cc([N+](=O)[O-])c2)CC(C)(C)N(C(=O)c2ccccc2)c2ccccc21` (stereo unspecified), for which the cell number change was -12.2%. Moreover, the AC50 under setting [2] is 13 µM [falling, partial curve].
Turning to `COc1cccc(OCC(=O)NNC(=O)c2cccs2)c1`, the cell number change came out at 20.7%. Further, under setting [2], the AC50 is 0.92 µM [rising, full curve, poor fit].
Consider `COC(=O)CC1COc2ccccc2N1C(=O)c1ccc(Cl)cc1` (stereo unspecified), for which the cell number change is 35.6%. Further, the AC50 under setting [1] is 18.4 µM [rising, single point]. Under setting [2], the AC50 was 8.2 µM [rising, partial curve, poor fit].
`Cc1noc(NS(=O)(=O)c2ccc(NC(=O)/C=C/c3ccc(C(C)C)cc3)cc2)c1C`: under setting [2], the AC50 is 6.51 µM [rising, partial curve].
Consider `O=C(ONC1=NCCCCC1)c1c(F)cccc1F`, for which the cell number change is -62.8%. For the same molecule, under setting [1], the AC50 is 13 µM [falling, partial curve, poor fit]. Further, the AC50 under setting [2] was 29.1 µM [falling, single point].
For `CC(C)c1ccc(OCC(=O)N2CCCCCC2)c(Br)c1`, the cell number change was -18%. Under setting [2], the AC50 was 2.06 µM [falling, partial curve, poor fit].
With `CC(=O)c1c(O)cc(=O)n(-c2ccccc2)c1-c1ccc(Cl)cc1`, under setting [2], the AC50 was 0.731 µM [falling, single point].
`COc1ccccc1/C=C/C=N/n1c(C2CCCCC2)n[nH]c1=S`: the cell number change is -55.8%. The AC50 under setting [1] was 29.1 µM [falling, single point].
In the case of `COc1ccccc1N=Nc1[nH]c2ccc(C)cc2c1O`, the cell number change was -29.2%. The AC50 under setting [2] was 25.9 µM [falling, partial curve].
Regarding `Cc1sc2ncnc(N3CCC(C)CC3)c2c1C`, the cell number change is -30.9%. For the same molecule, the AC50 under setting [1] is 14.6 µM [falling, partial curve]. Moreover, the AC50 under setting [2] is 10.3 µM [falling, partial curve].
